Assay: physchem
Conditions: buffer, pH 7.4

SMILES	logD
Nc1ncnc2c1C(=O)N(c1ccc(-c3ccc(Cn4cccnc4=O)cc3Cl)cc1)CCO2	0.9
CN(Cc1ccc(-c2ccc(N3CCOc4ncnc(N)c4C3=O)cc2)c(Cl)c1)S(C)(=O)=O	2.1

Reference: ChEMBL document CHEMBL3217691, “Discovery and optimization of efficacious neutral 4-amino-6-biphenyl-7,8-dihydropyrimido[5,4-f][1,4]oxazepin-5-one diacylglycerol acyl transferase-1 (DGAT1) inhibitors” (Medchemcomm, 2013)
